Data published in article doi:10.1101/106971.
Results are given in words; binding and its absence hold for the method and conditions named. Binding seen in cells or lysates may run through a third protein. Some results given as binding are weak or reduced against the parent protein; the word gives no strength.

Sequences of proteins named here, by UniProt entry; tags and fusion partners are left off.
UniProt Q9Y5K6: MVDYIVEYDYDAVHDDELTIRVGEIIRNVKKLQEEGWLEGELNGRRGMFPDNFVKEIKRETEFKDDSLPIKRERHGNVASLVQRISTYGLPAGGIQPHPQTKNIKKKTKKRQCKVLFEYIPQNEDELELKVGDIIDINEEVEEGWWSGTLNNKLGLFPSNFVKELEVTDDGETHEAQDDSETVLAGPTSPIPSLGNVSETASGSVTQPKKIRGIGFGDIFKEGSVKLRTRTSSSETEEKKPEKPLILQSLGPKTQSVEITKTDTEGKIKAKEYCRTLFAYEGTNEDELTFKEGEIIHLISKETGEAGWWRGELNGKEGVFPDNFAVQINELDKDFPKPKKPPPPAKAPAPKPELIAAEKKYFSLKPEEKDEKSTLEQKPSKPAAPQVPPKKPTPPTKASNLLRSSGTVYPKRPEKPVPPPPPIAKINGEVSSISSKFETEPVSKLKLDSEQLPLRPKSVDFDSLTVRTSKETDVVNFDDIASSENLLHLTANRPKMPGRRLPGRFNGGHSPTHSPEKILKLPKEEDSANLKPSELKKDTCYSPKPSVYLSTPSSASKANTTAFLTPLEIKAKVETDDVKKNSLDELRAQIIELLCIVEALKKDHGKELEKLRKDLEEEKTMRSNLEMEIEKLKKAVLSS

Biological target: GFP-CD2AP (U2OS, Figure 4C) (not stated (CD2AP and xCD2AP plasmids listed)) (UniProt Q9Y5K6)
Assay: co-IP

B1: PAWS1 (endogenous, U2OS) (protein, UniProt A6ND36-1 1-823)
chain: MAFSQVQCLDDNHVNWRSSESKPEFFYSEEQRLALEALVARGRDAFYEVLKRENIRDFLSELELKRILETIEVYDPGSEDPRGTGPSQGPEDNGVGDGEEASGADGVPIEAEPLPSLEYWPQKSDRSIPQLDLGWPDTIAYRGVTRASVYMQPPIDGQAHIKEVVRKMISQAQKVIAVVMDMFTDVDIFKDLLDAGFKRKVAVYIIVDESNVKYFLHMCERACMHLGHLKNLRVRSSGGTEFFTRSATKFKGALAQKFMFVDGDRAVCGSYSFTWSAARTDRNVISVLSGQVVEMFDRQFQELYLMSHSVSLKGIPMEKEPEPEPIVLPSVVPLVPAGTVAKKLVNPKYALVKAKSVDEIAKISSEKQEAKKPLGLKGPALAEHPGELPELLPPIHPGLLHLERANMFEYLPTWVEPDPEPGSDILGYINIIDPNIWNPQPSQMNRIKIRDTSQASAQHQLWKQSQDSRPRPEPCPPPEPSAPQDGVPAENGLPQGDPEPLPPVPKPRTVPVADVLARDSSDIGWVLELPKEEAPQNGTDHRLPRMAGPGHAPLQRQLSVTQDDPESLGVGLPNGLDGVEEEDDDDYVTLSDQDSHSGSSGRGPGPRRPSVASSVSEEYFEVREHSVPLRRRHSEQVANGPTPPPRRQLSAPHITRGTFVGPQGGSPWAQSRGREEADALKRMQAQRSTDKEAQGQQFHHHRVPASGTRDKDGFPGPPRYRSAADSVQSSTRNAGPAMAGPHHWQAKGGQVPRLLPDPGSPRLAQNARPMTDGRATEEHPSPFGIPYSKLSQSKHLKARTGGSQWASSDSKRRAQAPRDRKDP
binding: binds
